These are yes or no findings as the source states them, for the method shown. In cells and extracts the contact can be indirect. Some results given as binding are weak or reduced against the parent protein; the word gives no strength.
Biological target: c-Jun (human (endogenous in T47D)) (UniProt P05412)
Test: co-IP; T47D cells lysed in IP lysis buffer with protease inhibitor cocktail, without SDS; precipitated with 1 ug c-Jun antibody (ab32137) or IgG at 4 °C overnight, Protein A agarose 2 h at 4 °C; western blot

Protein sequences, listed by entry. Tags and fused reporters are not part of them. Lines headed by an entry give the natural chain unless they say otherwise; changes in a name come on top.
UniProt P05412: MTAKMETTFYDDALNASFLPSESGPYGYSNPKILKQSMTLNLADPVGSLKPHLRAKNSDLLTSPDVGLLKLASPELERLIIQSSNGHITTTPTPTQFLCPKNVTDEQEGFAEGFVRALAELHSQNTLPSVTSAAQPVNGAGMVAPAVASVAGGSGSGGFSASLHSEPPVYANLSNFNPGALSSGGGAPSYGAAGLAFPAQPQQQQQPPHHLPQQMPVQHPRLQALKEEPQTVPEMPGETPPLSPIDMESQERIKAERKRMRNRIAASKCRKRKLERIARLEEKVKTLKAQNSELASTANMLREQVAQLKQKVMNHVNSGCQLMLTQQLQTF
UniProt Q92793: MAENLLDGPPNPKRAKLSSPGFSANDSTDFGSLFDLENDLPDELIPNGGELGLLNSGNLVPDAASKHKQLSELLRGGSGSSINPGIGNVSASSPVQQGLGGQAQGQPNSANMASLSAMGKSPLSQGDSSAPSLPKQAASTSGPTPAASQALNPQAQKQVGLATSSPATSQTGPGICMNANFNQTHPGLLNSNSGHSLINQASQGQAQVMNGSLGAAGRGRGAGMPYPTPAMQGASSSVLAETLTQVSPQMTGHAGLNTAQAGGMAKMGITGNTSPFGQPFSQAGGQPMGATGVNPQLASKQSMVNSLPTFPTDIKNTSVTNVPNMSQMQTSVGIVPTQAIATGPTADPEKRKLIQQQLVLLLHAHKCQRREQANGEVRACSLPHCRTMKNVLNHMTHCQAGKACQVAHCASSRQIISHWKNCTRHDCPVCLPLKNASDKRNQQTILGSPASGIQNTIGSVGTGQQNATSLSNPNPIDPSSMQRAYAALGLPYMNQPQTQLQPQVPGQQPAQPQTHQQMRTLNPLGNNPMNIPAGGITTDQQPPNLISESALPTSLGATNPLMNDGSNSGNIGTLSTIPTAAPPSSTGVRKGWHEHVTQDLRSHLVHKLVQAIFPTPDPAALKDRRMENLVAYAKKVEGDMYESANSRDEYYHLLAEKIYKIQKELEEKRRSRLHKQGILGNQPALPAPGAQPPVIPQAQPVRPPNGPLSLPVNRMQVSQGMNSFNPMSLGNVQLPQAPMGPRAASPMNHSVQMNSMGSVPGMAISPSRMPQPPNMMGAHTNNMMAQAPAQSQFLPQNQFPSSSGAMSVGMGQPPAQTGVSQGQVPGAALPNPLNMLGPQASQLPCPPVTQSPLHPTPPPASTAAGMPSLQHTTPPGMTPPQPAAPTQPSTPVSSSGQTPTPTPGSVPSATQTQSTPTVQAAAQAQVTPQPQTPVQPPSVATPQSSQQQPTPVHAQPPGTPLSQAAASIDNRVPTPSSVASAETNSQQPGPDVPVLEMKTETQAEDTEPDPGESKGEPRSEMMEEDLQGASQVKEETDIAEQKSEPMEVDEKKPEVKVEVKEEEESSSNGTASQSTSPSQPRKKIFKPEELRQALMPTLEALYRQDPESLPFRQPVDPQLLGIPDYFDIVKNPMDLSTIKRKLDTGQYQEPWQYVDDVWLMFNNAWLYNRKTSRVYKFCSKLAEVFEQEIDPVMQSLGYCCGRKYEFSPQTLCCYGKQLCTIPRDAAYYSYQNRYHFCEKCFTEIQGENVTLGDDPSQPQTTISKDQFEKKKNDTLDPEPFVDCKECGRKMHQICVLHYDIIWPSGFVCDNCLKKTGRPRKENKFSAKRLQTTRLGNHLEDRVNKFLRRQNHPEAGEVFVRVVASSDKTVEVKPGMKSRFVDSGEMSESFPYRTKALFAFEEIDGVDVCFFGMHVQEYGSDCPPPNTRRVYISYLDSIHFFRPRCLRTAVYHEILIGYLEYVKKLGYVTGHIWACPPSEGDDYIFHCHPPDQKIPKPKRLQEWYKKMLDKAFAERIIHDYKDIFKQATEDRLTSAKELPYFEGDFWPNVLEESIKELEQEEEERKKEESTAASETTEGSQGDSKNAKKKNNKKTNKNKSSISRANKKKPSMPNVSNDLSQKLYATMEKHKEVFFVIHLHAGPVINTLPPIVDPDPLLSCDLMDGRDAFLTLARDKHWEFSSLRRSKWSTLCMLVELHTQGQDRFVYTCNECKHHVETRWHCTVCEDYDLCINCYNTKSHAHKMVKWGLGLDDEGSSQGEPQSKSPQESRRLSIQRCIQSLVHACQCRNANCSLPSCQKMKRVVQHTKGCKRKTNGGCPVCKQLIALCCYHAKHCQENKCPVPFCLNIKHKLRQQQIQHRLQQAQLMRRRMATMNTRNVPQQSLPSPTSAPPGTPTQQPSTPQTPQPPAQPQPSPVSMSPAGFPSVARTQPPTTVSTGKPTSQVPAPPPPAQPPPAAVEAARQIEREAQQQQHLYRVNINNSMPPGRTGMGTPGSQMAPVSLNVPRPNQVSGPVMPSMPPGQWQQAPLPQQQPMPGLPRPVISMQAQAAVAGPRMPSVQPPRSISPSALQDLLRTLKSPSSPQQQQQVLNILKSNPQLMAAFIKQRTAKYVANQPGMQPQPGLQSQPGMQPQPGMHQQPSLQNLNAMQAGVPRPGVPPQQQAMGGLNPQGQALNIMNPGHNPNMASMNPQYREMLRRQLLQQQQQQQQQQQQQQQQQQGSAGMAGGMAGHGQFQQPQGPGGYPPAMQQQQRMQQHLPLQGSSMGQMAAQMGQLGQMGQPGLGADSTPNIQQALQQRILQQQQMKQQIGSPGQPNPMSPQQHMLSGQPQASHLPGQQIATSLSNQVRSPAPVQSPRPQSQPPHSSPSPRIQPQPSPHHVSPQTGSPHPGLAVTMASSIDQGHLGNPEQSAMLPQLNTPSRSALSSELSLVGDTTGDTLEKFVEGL

In the case of CBP (from UniProt Q92793 1-2442), the binding is reported as “binds”.

From paper PMC10558541
